Some results were stated once for a whole list of compounds, not compound by compound.
Molecular target: T1, V600E full-length B-Raf (Homo sapiens, UniProt P15056, V600E)
T1 construct: 20 nM V600E full-length B-Raf; made in house; host or cells: Sf9 insect cells (baculovirus)
Assay: B-Raf IC50 Assay
Format: biochemical
Details: incorporation of radio labeled phosphate from [γ-33P]ATP into FSBA-modified wild-type MEK; 4 μM ATP, 20 nM V600E full-length B-Raf, 22° C., 60-minute incubation

Protein sequences, listed by entry. Tags and fused reporters are not part of them.
UniProt P15056, whole entry V600E: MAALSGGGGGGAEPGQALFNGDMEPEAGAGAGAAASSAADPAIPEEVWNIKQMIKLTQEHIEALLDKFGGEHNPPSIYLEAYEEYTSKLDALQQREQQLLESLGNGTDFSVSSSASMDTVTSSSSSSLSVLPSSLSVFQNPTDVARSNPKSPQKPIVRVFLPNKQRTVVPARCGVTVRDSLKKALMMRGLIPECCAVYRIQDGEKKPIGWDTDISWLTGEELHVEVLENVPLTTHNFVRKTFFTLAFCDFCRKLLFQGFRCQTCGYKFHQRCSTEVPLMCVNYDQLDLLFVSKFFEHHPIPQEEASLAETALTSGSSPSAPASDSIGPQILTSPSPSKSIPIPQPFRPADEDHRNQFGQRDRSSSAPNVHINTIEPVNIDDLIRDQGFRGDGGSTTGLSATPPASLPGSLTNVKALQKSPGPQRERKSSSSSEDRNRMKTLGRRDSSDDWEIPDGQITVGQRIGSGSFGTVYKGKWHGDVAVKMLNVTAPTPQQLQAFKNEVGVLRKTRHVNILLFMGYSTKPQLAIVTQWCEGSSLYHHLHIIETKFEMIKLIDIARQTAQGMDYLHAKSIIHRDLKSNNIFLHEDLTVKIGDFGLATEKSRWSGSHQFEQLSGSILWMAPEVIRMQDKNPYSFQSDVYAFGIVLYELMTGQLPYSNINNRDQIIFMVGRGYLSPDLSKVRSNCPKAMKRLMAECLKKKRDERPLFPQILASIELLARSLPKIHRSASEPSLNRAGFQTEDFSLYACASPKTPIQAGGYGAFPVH

For `CCCS(=O)(=O)Nc1ccc(F)c(C(=O)Nc2cnc3[nH]nc(-c4ccc(Cl)cc4)c3c2)c1F` [Example 21, N-(3-(4-chlorophenyl)-1H-pyrazolo[3,4-b]pyridin-5-yl)-2,6-difluoro-3-(propylsulfonamido) benzamide], the IC50 was less than 1000 nM.

For `CCCS(=O)(=O)Nc1ccc(F)c(C(=O)Nc2cnc3[nH]nc(-c4cnn(C)c4)c3c2)c1F` [Example 32, 2,6-difluoro-N-(3-(1-methyl-1H-pyrazol-4-yl)-1H-pyrazolo[3,4-b]pyridin-5-yl)-3-(propylsulfonamido) benzamide], the IC50 was less than 1000 nM.

For `CCCS(=O)(=O)Nc1ccc(F)c(C(=O)Nc2cnc3[nH]nc(NC(C)=O)c3c2)c1F` [Example 67, N-(3-acetamido-1H-pyrazolo[3,4-b]pyridin-5-yl)-2,6-difluoro-3-(propylsulfonamido)benzamide], the IC50 was less than 1000 nM.

`CCCS(=O)(=O)Nc1ccc(F)c(C(=O)Nc2cnc3[nH]nc(OCCCO)c3c2)c1F` [Example 82, 2,6-difluoro-N-(3-(3-hydroxypropoxy)-1H-pyrazolo[3,4-b]pyridin-5-yl)-3-(propylsulfonamido)benzamide] showed an IC50 of less than 1000 nM.

Work on `CCCS(=O)(=O)Nc1cc(F)cc(C(=O)Nc2cnc3[nH]nc(OC)c3c2)c1F` [Example 54, 2,5-difluoro-N-(3-methoxy-1H-pyrazolo[3,4-b]pyridin-5-yl)-3-(propylsulfonamido)benzamide] yielded an IC50 of less than 1000 nM.

`CCCS(=O)(=O)Nc1ccc(F)c(C(=O)Nc2cnc3[nH]nc(N4CCN(C)CC4)c3c2)c1F` [Example 105, 2,6-difluoro-N-(3-(4-methylpiperazin-1-yl)-1H-pyrazolo[3,4-b]pyridin-5-yl)-3-(propylsulfonamido)benzamide] showed an IC50 of less than 1000 nM.

`CCS(=O)(=O)Nc1ccc(F)c(C(=O)Nc2cnc3[nH]nc(OC)c3c2)c1F` [Example 71, 3-(ethylsulfonamido)-2,6-difluoro-N-(3-methoxy-1H-pyrazolo[3,4-b]pyridin-5-yl)benzamide] gave an IC50 of less than 1000 nM.

`CCCS(=O)(=O)Nc1ccc(F)c(C(=O)Nc2cnc3[nH]nc(-c4cccc(OCCN(C)C)c4)c3c2)c1F` [Example 15] was tested, and the IC50 was less than 1000 nM.

For `O=C(Nc1cnc2[nH]nc(-c3ccccn3)c2c1)c1c(F)ccc(NS(=O)(=O)CCCF)c1F` [Example 52, 2,6-difluoro-3-(3-fluoropropylsulfonamido)-N-(3-(pyridin-2-yl)-1H-pyrazolo[3,4-b]pyridin-5-yl)benzamide], the IC50 was less than 1000 nM.

With `O=C(Nc1cnc2[nH]ncc2c1)c1c(Cl)ccc(NS(=O)(=O)CCCF)c1F` [Example 112, 6-chloro-2-fluoro-3-(3-fluoropropylsulfonamido)-N-(1H-pyrazolo[3,4-b]pyridin-5-yl)benzamide] the IC50 was less than 1000 nM.

With `CCCS(=O)(=O)Nc1ccc(F)c(C(=O)Nc2cnc3[nH]nc(-n4ccnc4)c3c2)c1F` [Example 51, N-(3-(1H-imidazol-1-yl)-1H-pyrazolo[3,4-b]pyridin-5-yl)-2,6-difluoro-3-(propylsulfonamido)benzamide] the IC50 was less than 1000 nM.

`CCCS(=O)(=O)Nc1cc(F)c(F)c(C(=O)Nc2cnc3[nH]nc(OC)c3c2)c1F` [Example 55, 2,3,6-trifluoro-N-(3-methoxy-1H-pyrazolo[3,4-b]pyridin-5-yl)-5-(propylsulfonamido)benzamide] gave an IC50 of less than 1000 nM.

In the case of `COc1n[nH]c2ncc(NC(=O)c3c(Cl)ccc(NS(=O)(=O)CCCO)c3F)cc12` [Example 88, 6-chloro-2-fluoro-3-(3-hydroxypropylsulfonamido)-N-(3-methoxy-1H-pyrazolo[3,4-b]pyridin-5-yl)benzamide], the IC50 is reported as less than 1000 nM.

`CCCS(=O)(=O)Nc1cccc(C(=O)Nc2cnc3[nH]nc(OC)c3c2)c1F` [Example 56, 2-fluoro-N-(3-methoxy-1H-pyrazolo[3,4-b]pyridin-5-yl)-3-(propylsulfonamido)benzamide] was tested, and the IC50 was less than 1000 nM.

In the case of `CCCS(=O)(=O)Nc1ccc(F)c(C(=O)Nc2cnc3[nH]nc(C#N)c3c2)c1F` [Example 87, N-(3-cyano-1H-pyrazolo[3,4-b]pyridin-5-yl)-2,6-difluoro-3-(propylsulfonamido)benzamide], the IC50 is reported as less than 1000 nM.

In the case of `CCCS(=O)(=O)Nc1ccc(F)c(C(=O)Nc2cnc3[nH]nc(-c4cccc(CN5CCCCC5)c4)c3c2)c1F` [Example 104, 2,6-difluoro-N-(3-(3-(piperidin-1-ylmethyl)phenyl)-1H-pyrazolo [3,4-b]pyridin-5-yl)-3-(propylsulfonamido)benzamide], the IC50 is reported as less than 1000 nM.

For `O=C(Nc1cnc2[nH]nc(Br)c2c1)c1c(F)ccc(NS(=O)(=O)CC2CC2)c1F` [Example 107, N-(3-bromo-1H-pyrazolo[3,4-b]pyridin-5-yl)-3-(cyclopropylmethylsulfonamido)-2,6-difluorobenzamide], the IC50 was less than 1000 nM.

For `CCCS(=O)(=O)Nc1cccc(C(=O)Nc2cnc3[nH]ncc3c2)c1F` [Example 109, 2-fluoro-3-(propylsulfonamido)-N-(1H-pyrazolo[3,4-b]pyridin-5-yl)benzamide], the IC50 was less than 1000 nM.

For `CCCS(=O)(=O)Nc1ccc(F)c(C(=O)Nc2cnc3[nH]nc(Nc4ccccc4)c3c2)c1F` [Example 48, 2,6-difluoro-N-(3-(phenylamino)-1H-pyrazolo[3,4-b]pyridin-5-yl)-3-(propylsulfonamido)benzamide], the IC50 was less than 1000 nM.

With `COc1n[nH]c2ncc(NC(=O)c3c(F)ccc(NS(=O)(=O)c4cccnc4)c3F)cc12` [Example 137, 2,6-difluoro-N-(3-methoxy-1H-pyrazolo[3,4-b]pyridin-5-yl)-3-(pyridine-3-sulfonamido) benzamide] the IC50 was less than 1000 nM.

Compound `COc1n[nH]c2ncc(NC(=O)c3c(F)ccc(NS(=O)(=O)c4ccc(F)cc4)c3F)cc12` [Example 131, 2,6-difluoro-3-(4-fluorophenylsulfonamido)-N-(3-methoxy-1H-pyrazolo[3,4-b]pyridin-5-yl)benzamide] has an IC50 of less than 1000 nM.

Work on `CCCS(=O)(=O)Nc1ccc(F)c(C(=O)Nc2cnc3[nH]nc(OCC(F)(F)F)c3c2)c1F` [Example 80, 2,6-difluoro-3-(propylsulfonamido)-N-(3-(2,2,2-trifluoroethoxy)-1H-pyrazolo[3,4-b]pyridin-5-yl)benzamide] yielded an IC50 of less than 1000 nM.

For `CCCS(=O)(=O)Nc1ccc(F)c(C(=O)Nc2cnc3[nH]nc(OCC)c3c2)c1F` [Example 59, N-(3-ethoxy-1H-pyrazolo[3,4-b]pyridin-5-yl)-2,6-difluoro-3-(propylsulfonamido)benzamide], the IC50 was less than 1000 nM.

With `CCCS(=O)(=O)Nc1ccc(F)c(C(=O)Nc2cnc3[nH]nc(C(C)C)c3c2)c1F` [Example 14, 2,6-difluoro-N-(3-isopropyl-1H-pyrazolo[3,4-b]pyridin-5-yl)-3-(propylsulfonamido)benzamide] the IC50 was less than 1000 nM.

In the case of `CCCS(=O)(=O)Nc1ccc(F)c(C(=O)Nc2cnc3[nH]nc(OC(C)C)c3c2)c1F` [Example 143, 2,6-difluoro-N-(3-isopropoxy-1H-pyrazolo[3,4-b]pyridin-5-yl)-3-(propylsulfonamido)benzamide], the IC50 is reported as less than 1000 nM.

With `O=C(Nc1cnc2[nH]nc(C3CC3)c2c1)c1c(F)ccc(NS(=O)(=O)CCCF)c1F` [Example 62, N-(3-cyclopropyl-1H-pyrazolo[3,4-b]pyridin-5-yl)-2,6-difluoro-3-(3-fluoropropylsulfonamido)benzamide] the IC50 was less than 1000 nM.

Work on `CCCS(=O)(=O)Nc1ccc(F)c(C(=O)Nc2cnc3[nH]nc([C@@H]4C[C@@H]4C)c3c2)c1F` (relative stereo) [Example 61, 2,6-difluoro-N-(3-(cis-2-methylcyclopropyl)-1H-pyrazolo[3,4-b]pyridin-5-yl)-3-(propylsulfonamido)benzamide] yielded an IC50 of less than 1000 nM.

`CCCS(=O)(=O)Nc1ccc(F)c(C(=O)Nc2cnc3[nH]nc(C4CC4)c3c2)c1Cl` [Example 101, 2-chloro-N-(3-cyclopropyl-1H-pyrazolo[3,4-b]pyridin-5-yl)-6-fluoro-3-(propylsulfonamido)benzamide] showed an IC50 of less than 1000 nM.

Compound `CCCS(=O)(=O)Nc1ccc(F)c(C(=O)Nc2cnc3[nH]nc(OCCF)c3c2)c1F` [Example 78, 2,6-difluoro-N-(3-(2-fluoroethoxy)-1H-pyrazolo[3,4-b]pyridin-5-yl)-3-(propylsulfonamido)benzamide] has an IC50 of less than 1000 nM.

Work on `CCCS(=O)(=O)Nc1ccc(F)c(C(=O)Nc2cnc3[nH]nc(OCC4CCC4)c3c2)c1F` [Example 84, N-(3-(cyclobutylmethoxy)-1H-pyrazolo[3,4-b]pyridin-5-yl)-2,6-difluoro-3-(propylsulfonamido)benzamide] yielded an IC50 of less than 1000 nM.

Work on `CCCS(=O)(=O)Nc1ccc(Cl)c(C(=O)Nc2cnc3[nH]nc(OC)c3c2)c1` [Example 75, 2-chloro-N-(3-methoxy-1H-pyrazolo[3,4-b]pyridin-5-yl)-5-(propylsulfonamido)benzamide] yielded an IC50 of less than 1000 nM.

`O=C(Nc1cnc2[nH]ncc2c1)c1c(F)ccc(NS(=O)(=O)CCCF)c1F` [Example 110, 2,6-difluoro-3-(3-fluoropropyl-sulfonamido)-N-(1H-pyrazolo[3,4-b]pyridin-5-yl)benzamide] was tested, and the IC50 was less than 1000 nM.

In the case of `CCCS(=O)(=O)Nc1ccc(F)c(C(=O)Nc2cnc3[nH]nc(C4=CCN(C)CC4)c3c2)c1F` [Example 43, 2,6-difluoro-N-(3-(1-methyl-1,2,3,6-tetrahydropyridin-4-yl)-1H-pyrazoloyl)-3-(propylsulfonamido)benzamide], the IC50 is reported as less than 1000 nM.

For `COc1n[nH]c2ncc(NC(=O)c3c(F)ccc(NS(=O)(=O)c4ccccn4)c3F)cc12` [Example 136, 2,6-difluoro-N-(3-methoxy-1H-pyrazolo[3,4-b]pyridin-5-yl)-3-(pyridine-2-sulfonamido)benzamide], the IC50 was less than 1000 nM.

`CCCS(=O)(=O)Nc1ccc(F)c(C(=O)Nc2cnc3[nH]nc(-c4cccc(Cl)c4)c3c2)c1F` [Example 31, N-(3-(3-chlorophenyl)-1H-pyrazolo[3,4-b]pyridin-5-yl)-2,6-difluoro-3-(propylsulfonamido) benzamide] showed an IC50 of less than 1000 nM.

`CCCS(=O)(=O)Nc1ccc(F)c(C(=O)Nc2cnc3[nH]nc(-c4cccnc4)c3c2)c1F` [Example 29, 2,6-difluoro-3-(propylsulfonamido)-N-(3-(pyridin-3-yl)-1H-pyrazolo[3,4-b]pyridin-5-yl) benzamide] gave an IC50 of less than 1000 nM.

— patent publication US8394795B2, “Pyrazole [3, 4-B] pyridine Raf inhibitors” (Array BioPharma Inc., priority 2008, dated 2013)
